These are yes or no findings as the source states them, for the method shown. Some entries that bind do so weakly or less than the wild type.

Protein sequences, listed by entry. Tags and fused reporters are not part of them. Lines headed by an entry give the natural chain unless they say otherwise; changes in a name come on top.
UniProt P11226: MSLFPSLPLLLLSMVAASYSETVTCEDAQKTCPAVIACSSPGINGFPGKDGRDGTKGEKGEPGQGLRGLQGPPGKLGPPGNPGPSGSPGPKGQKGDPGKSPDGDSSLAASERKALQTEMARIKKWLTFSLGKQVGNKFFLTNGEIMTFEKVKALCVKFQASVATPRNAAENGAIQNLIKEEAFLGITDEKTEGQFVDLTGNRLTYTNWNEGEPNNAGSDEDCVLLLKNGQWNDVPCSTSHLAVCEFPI

The experiment has as its target biotinylated human placental calreticulin (human) (UniProt P27797). In words: ELISA: plate coated with lectin 10 ug/mL, biotinylated calreticulin 5 ug/mL, O.D. 405. (In general: An ELISA detects its analyte on a solid surface through an enzyme-linked reagent.)

On to “recombinant human mannose-binding lectin (rhMBL) (from UniProt P11226 21-248)”, for which the binding result is given as “binds”.

Source of the values: patent US20100331240A1.
